These are yes or no findings as the source states them, for the method shown. Some results given as binding are weak or reduced against the parent protein; the word gives no strength. Where a sequence is shown, tags or fusion partners need not be part of it.
B1: Lingo-3-RLuc (protein, not shown: large carriers)
chain: CPARCECTVQTRAVACTRRRLTAVPDGIPAETRLLELSRNRIRCLNPGDLAALPALEELDLSENAIAHVEPGAFANLPRLRVLRLRGNQLKLIPPGVFTRLDNLTLLDLSENKLVILLDYTFQDLHSLRRLEVGDNDLVFVSRRAFAGLLALEELTLERCNLTALSGESLGHLRSLGALRLRHLAIASLEDQNFRRLPGLLHLEIDNWPLLEEVAAGSLRGLNLTSLSVTHTNITAVPAAALRHQAHLTCLNLSHNPISTVPRGSFRDLVRLRELHLAGALLAVVEPQAFLGLRQIRLLNLSNNLLSTLEESTFHSVNTLETLRVDGNPLACDCRLLWIVQRRKTLNFDGRLPACATPAEVRGDALRNLPDSVLFEYFVCRKPKIRERRLQRVTATAGEDVRFLCRAEGEPAPTVAWVTPQHRPVTATSAGRARVLPGGTLEIQDARPQDSGTYTCVASNAGGNDTYFATLTVRPEPAANRTPGEAHNETLAALRAPLDLTTILVSTAMGCITFLGVVLFCFVLLFVWSRGRGQHKNNFSVEYSFRKVDGPAAAAGQGGARKFNMKMI
B2: Lingo-4-RLuc (protein, not shown: large carriers)
chain: GSCPAVCDCTSQPQAVLCGHRQLEAVPGGLPLDTELLDLSGNRLWGLQQGMLSRLSLLQELDLSYNQLSTLEPGAFHGLQSLLTLRLQGNRLRIMGPGVFSGLSALTLLDLRLNQIVLFLDGAFGELGSLQKLEVGDNHLVFVAPGAFAGLAKLSTLTLERCNLSTVPGLALARLPALVALRLRELDIGRLPAGALRGLGQLKELEIHLWPSLEALDPGSLVGLNLSSLAITRCNLSSVPFQALYHLSFLRVLDLSQNPISAIPARRLSPLVRLQELRLSGACLTSIAAHAFHGLTAFHLLDVADNALQTLEETAFPSPDKLVTLRLSGNPLTCDCRLLWLLRLRRHLDFGMSPPACAGPHHVQGKSLKEFSDILPPGHFTCKPALIRKSGPRWVIAEEGGHAVFSCSGDGDPAPTVSWMRPHGAWLGRAGRVRVLEDGTLEIRSVQLRDRGAYVCVVSNVAGNDSLRTWLEVIQVEPPNGTLSDPNITVPGIPGPFFLDSRGVAMVLAVGFLPFLTSVTLCFGLIALWSKGKGRVKHHMTFDFVAPRPSGDKNSGGNRVTAKLF

How the values were obtained:
Lingo-3-YFP (human) = target: T1, Lingo-3-YFP (human) (UniProt P0C6S8); test: BRET saturation in live HEK-293 cells, 96-well plates
T1 sequence: B1 chain

Lingo-4-YFP (human) = target: T2, Lingo-4-YFP (human) (UniProt Q6UY18); test: as above
T2 sequence: B2 chain

Binder | binding (Lingo-3-YFP (human)) | binding (Lingo-4-YFP (human))
B1 | binds | –
B2 | – | binds
